Consider two sequences from paper PMC5519952.

Sequences of proteins named here, by UniProt entry; tags and fusion partners are left off. Residues count along the entry.
UniProt P16422, 24-314: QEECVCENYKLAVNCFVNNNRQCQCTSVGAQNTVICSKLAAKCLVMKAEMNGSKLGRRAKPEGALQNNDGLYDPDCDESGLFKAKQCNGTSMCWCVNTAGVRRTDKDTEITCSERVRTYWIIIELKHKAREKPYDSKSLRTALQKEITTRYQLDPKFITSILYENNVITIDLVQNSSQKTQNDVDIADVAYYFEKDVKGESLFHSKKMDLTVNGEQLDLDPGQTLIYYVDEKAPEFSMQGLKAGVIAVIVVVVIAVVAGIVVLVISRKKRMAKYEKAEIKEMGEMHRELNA

The target of series [1] is EpCAM (epithelial cell adhesion molecule) (Homo sapiens (MCF-7 breast cancer cells)) (UniProt P16422). Description: flow cytometry and confocal fluorescence on MCF-7 cells. The settings on record: 1 uM aptamer, EpCAM-negative Ramos cells no signal, signal lost after EpCAM siRNA; 30 min, 37 C; wash PBS pH 7.4 (136.7 mM NaCl, 2.7 mM KCl, 8.72 mM Na2HPO4); protein on the cell surface; label: FITC; single-stranded DNA.

For series [2] the target is unchanged. Kind of series: SERS (Raman) imaging on MCF-7 cells. The note with it: 1 nM Au30 or Au40 probe with Au10 probe, ManNAz-labeled cells, Ramos very weak, signal lost after EpCAM siRNA; 3'-SH; 30 min, 37 C; wash PBS pH 7.4 (136.7 mM NaCl, 2.7 mM KCl, 8.72 mM Na2HPO4); protein on the cell surface; label: gold nanoparticle with PEG; single-stranded DNA.

Construct, isoform or probe ends are uncertain for at least one entry. At least one result comes from cells or an extract, where the contact may be indirect.

In the case of “CACTACAGAGGTTGCGTCTGTCCCACGTTGTCATGGGGGGTTGGCCTGAAAAAAAAAAAAAAA [FITC-labeled EpCAM aptamer]”, in series [1], the binding result is “binds”.
As to “CACTACAGAGGTTGCGTCTGTCCCACGTTGTCATGGGGGGTTGGCCTGAAAAAAAAAAAAAAA [thiol EpCAM aptamer (AP) on AuNP (Au30/Au40 probe)]”, the binding result in series [2] is “binds”.
